Screening data, single-dose tests

The values are deposited in ChEMBL (CHEMBL3988442, “University of Dundee, Small-Polar-MMV Screening Library” (2021)).

A: 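Growth of Mycobacterium tuberculosis over 3 days (7H9 medium with glucose and tyloxapol); the read-out is not stated. Tested at 50 µM. Higher reads as more growth inhibition (inferred: compounds with an IC50 in retests scored well above the rest). Of about 69,000 compounds tested this way, about 760 (1.1%) reached 50% or more in at least one test.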
B: 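Growth of Mycobacterium tuberculosis over 4 days (cholesterol / DPPC medium with tyloxapol); the read-out is not stated. Compounds at 50 µM. Direction is inferred from retests: higher values go with more growth inhibition. Of about 69,000 compounds tested this way, about 370 (0.54%) reached 50% or more in at least one test.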

Each number is a percent effect as filed. The controls that fix the scale are not given in the record; negative values are as filed. The compounds are a random part of those screened. Two or more numbers in one place are separate tests of the same structure; such repeats can differ widely.

{"compound": "[H][C@@]12CS(=O)(=O)C[C@]1([H])N(S(=O)(=O)c1cccs1)CCN2C(=O)COC", "A": -30.48, "B": -22.97}
{"compound": "Cc1cccc(OC2CCN(C(=O)NCc3cc[nH]n3)CC2)c1C", "A": -21.61, "B": -14.5}
{"compound": "Cc1nccc(-c2cccc(NCC(=O)N3CCOC(C)C3)c2)n1", "stereo": "stereo unspecified", "A": 33.06, "B": 13.15}
{"compound": "CCn1nc(C)cc1C(=O)N1CCC(Nc2ccc(C)nn2)CC1", "A": -25.03, "B": -7.917}
{"compound": "CC(C)CC(NC(=O)OC(C)(C)C)C(N)=O", "stereo": "stereo unspecified", "A": "-2.612 & -48.65", "B": -42.32}
{"compound": "COC(=O)N1CCC(CNC(=O)C2CCN(S(C)(=O)=O)CC2)CC1", "A": -22.79, "B": -5.326}
{"compound": "CN(Cc1ccncc1)C(=O)NC1CCS(=O)(=O)C1", "stereo": "stereo unspecified", "A": -12.05, "B": -5.329}
{"compound": "CN(C)c1ccc(C(=O)Nc2ccn(CCc3ccncc3)n2)cc1", "A": 7.873, "B": 2.803}
{"compound": "COc1cc(C(=O)NCC2CCCN(Cc3ccco3)C2)ccn1", "stereo": "stereo unspecified", "A": -20.41, "B": -20.62}
{"compound": "Cc1cnn(CC2CCCN2C(=O)c2csc(C3CC3)n2)c1", "stereo": "stereo unspecified", "A": -4.366, "B": 17.62}
{"compound": "COCC(C)NC(=O)CCCn1cnc2ccccc2c1=O", "stereo": "stereo unspecified", "A": -23.12, "B": -10.71}
{"compound": "CCc1nc(CN2CCCN(C(=O)c3cn[nH]c3C)CC2)cs1", "A": -5.714, "B": -12.17}
{"compound": "CC(=O)N1CCc2c(nc(N(C)C)nc2NCCCn2ccnc2C)C1", "A": -4.661, "B": -2.794}
{"compound": "CCOCC1CN(C(=O)N(C)C)Cc2nnn(CC3CC3)c21", "stereo": "stereo unspecified", "A": "9.409 & -2.343", "B": 7.989}
{"compound": "CCOc1ncccc1NC(=O)Nc1c(C)nn(C(C)C)c1C", "A": 11.04, "B": 12.05}
{"compound": "O=C(CN1CCCC1Cn1cncn1)NCCc1c(F)cccc1F", "stereo": "stereo unspecified", "A": -2.714, "B": -16.18}
{"compound": "Cc1cc(CSC2CCCN(c3cnn(C)c3)C2=O)no1", "stereo": "stereo unspecified", "A": -11.09, "B": -6.037}
{"compound": "CCC(CC)NCC(C)Oc1cccnc1", "stereo": "stereo unspecified", "A": -11.27, "B": "-17.22 & -5.327"}
{"compound": "Cc1nc[nH]c1-c1nnc(SCC(=O)O)n1-c1ccccc1C(F)(F)F", "A": -0.09507, "B": -22.27}
{"compound": "CC(=O)N1CCCC(Cc2nccn2C)C1", "stereo": "stereo unspecified", "A": -9.89, "B": 9.868}
{"compound": "Cc1nc(-c2ccc(S(=O)(=O)N3CCSCC3)cc2)co1", "A": "-15.84 & 3.621", "B": -7.809}
{"compound": "CN(CCc1ccncc1)CCc1nccs1", "A": 1.896, "B": -8.382}
{"compound": "CCS(=O)(=O)N1CC(=O)N(CCOc2ccccc2)CC(O)C1", "stereo": "stereo unspecified", "A": 28.42, "B": 7.732}
{"compound": "Cn1c(CN2CCOCC2)nnc1C1CCCN(CC(N)=O)C1", "stereo": "stereo unspecified", "A": -15.92, "B": -9.638}
{"compound": "Fc1cccc(-c2noc3c2CN(Cc2cncn2C2CC2)CC3)c1", "A": -5.946, "B": -3.773}
{"compound": "C1CCN(Cc2nnn3c2CN(CC2CC2)CCC3)C1", "A": "20.75 & 4.077", "B": 2.415}
{"compound": "COc1cccc2c1OCC(C(=O)N1CCN(C3CCCC3)C(=O)C1)C2", "stereo": "stereo unspecified", "A": 61.7, "B": "-12.51 & -0.02952"}
{"compound": "CCc1ccsc1C(=O)NC(C#N)CC(C)C", "stereo": "stereo unspecified", "A": 21.35, "B": -10.75}
{"compound": "CN(C)c1cc(CNc2ccc(S(=O)(=O)C(C)(C)C)nc2)ccn1", "A": -14.55, "B": -9.418}
{"compound": "O=C(c1cccc2c1OCCO2)N1CCCCC1Cn1cccn1", "stereo": "stereo unspecified", "A": 12.75, "B": 17.94}
{"compound": "Cc1ccc(C(=O)NCCCC2(C3OCCO3)CCOCC2)cc1C", "A": "7.269 & 12.26", "B": 9.301}
{"compound": "Cc1cnn(C2CCCN(C(=O)CCc3c(C)noc3C)C2)c1", "stereo": "stereo unspecified", "A": "0.7948 & 11.25", "B": -2.337}
{"compound": "COc1ccccc1CN(C)c1nccc(-c2cn(C)nc2C)n1", "A": 16.76, "B": 7.568}
{"compound": "CC(O)CN(C(=O)NC1CCN(CC2CCCCC2)CC1)C(C)C", "stereo": "stereo unspecified", "A": "-0.9883 & -14.07", "B": -6.76}
{"compound": "Cl.Cl.O[C@@H]1C[C@@](CNCc2cccc(Cl)c2)(COc2cccnc2)C[C@@H]1O", "A": "11.44 & -1.65", "B": -11.78}
{"compound": "CN1CCC(C)(CN(C)Cc2ccc(CCC(C)(C)O)cc2)C1", "stereo": "stereo unspecified", "A": 12.08, "B": 1.916}
{"compound": "[H][C@]12CC[C@]([H])(CN(C(=O)COCc3nc4cc(F)ccc4[nH]3)C1)N(C)C2", "A": -2.779, "B": -8.372}
{"compound": "O=C(O)C(F)(F)F.[H][C@]12CCC[C@@H](CNc3ccccn3)[C@@]1([H])CN(Cc1cccnc1)C2", "A": 6.671, "B": -5.237}
{"compound": "OC[C@H]1CN(Cc2c(Cl)cncc2Cl)C[C@H]1CN1CCCC1", "A": "-0.3727 & 0.3335", "B": "-2.455 & 2.54"}
{"compound": "Cc1cccc(C(=O)N2CCn3cc(CNC(=O)CC4CC4)nc3C2)n1", "A": 18.57, "B": -0.5153}
{"compound": "[H][C@@]12OCCN(C(=O)c3nn(C)c4ccccc34)[C@@]1([H])CC[C@H]2OCC", "A": -16.98, "B": -5.838}
{"compound": "N#Cc1ccc(S(=O)(=O)NC(=O)c2csc(-c3ccco3)n2)cc1", "A": -13.25, "B": -18.57}
{"compound": "Cc1cc(C)c(CNC(=O)C(C)Oc2cccc(C#N)c2)c(=O)[nH]1", "stereo": "stereo unspecified", "A": -6.971, "B": -14.76}
{"compound": "CC(C)(C)c1nc(CN2CCC3(CCCO3)CCC2=O)no1", "stereo": "stereo unspecified", "A": -28.59, "B": "16.96 & -2.882"}
{"compound": "Cc1nc(C2CCN(S(C)(=O)=O)CC2)nc2c1CCC(=O)N2CC(C)C", "A": -1.424, "B": "-8.496 & -5.076"}
{"compound": "CS(=O)(=O)N1CC2(CCN(C(=O)c3ccncc3)CC2)c2ccccc21.O=C(O)C(F)(F)F", "A": -16.93, "B": -7.456}
{"compound": "c1cc(-c2noc(CN3CCn4c(nnc4C4CC4)C3)n2)co1", "A": -16.01, "B": 19.35}

Some entries from above, unchanged:

Result for CS(=O)(=O)N1CC2(CCN(C(=O)c3ccncc3)CC2)c2ccccc21.O=C(O)C(F)(F)F was A: -16.93%; B: -7.456%.
Result for [H][C@@]12OCCN(C(=O)c3nn(C)c4ccccc34)[C@@]1([H])CC[C@H]2OCC was A: -16.98%; B: -5.838%.
Result for CCc1nc(CN2CCCN(C(=O)c3cn[nH]c3C)CC2)cs1 was A: -5.714%; B: -12.17%.